From patent publication US20250026916A1, “ULTRAVIOLET ABSORBER AND USE THEREOF” (RIANLON (ZHONGWEI) NEW MATERIAL CO., LTD., priority 2023, published 2025)

Assay: Xenon lamp aging of two-component acrylic varnish on epoxy-reinforced carbon fiber plate (gloss, adhesive force)
Details: for 20° gloss, initial: 1 wt % absorber in component A with 0.6 wt % Riasorb UV-123, before aging; for Adhesive force after 6000 h of Xenon Exposure / 20° gloss after aging 2000 h / 20° gloss after aging 4000 h / 20° gloss after aging 6000 h: 1 wt % absorber in component A; for Adhesive force after 6000 h of Xenon Exposure: ISO 2409-2013; for 20° gloss after aging 2000 h / 20° gloss after aging 4000 h / 20° gloss after aging 6000 h: xenon lamp, SAE J2527

SMILES	20° gloss, initial	Adhesive force after 6000 h of Xenon Exposure	20° gloss after aging 2000 h	20° gloss after aging 4000 h	20° gloss after aging 6000 h
CCCCCCCCCCCCSc1ccc2nn(-c3cc(C)cc(C(C)(C)C)c3O)nc2c1 [RSUV-1]	90.4	Rate 4, a large area dropped	78.5	65.3	50.4
CCCCCCCCCCCCS(=O)(=O)c1ccc2nn(-c3cc(C)cc(C(C)(C)C)c3O)nc2c1 [RSUV-2]	91.0	Rate 2, a small amount	85.0	68.2	55.9
